Converted amounts (≈) assume the structure as drawn. Read-outs that look alike come from different tables or passages of the source.

Series [1] has as its system HK-2 cell line. The experiment in a line: HK-2 cytotoxicity assay. The settings on record: HK-2 immortalized proximal tubule cells from normal human kidney; read-out: In vitro human HK-2 assay IC50. It is filed as cell-based. The source says:
The assay is analogously to that described, for example, by Keirstead et al. in Toxicol. Sci. 2014, vol. 137, pp. 278-291.

For series [2] the following is noted: mouse, oral gavage, single dose 30 mg/kg, corrected for kidney tissue density.
In series [3] the test system is luciferase-expressing A498 renal cancer cell line (A498-luc). The settings on record: 30 mg/kg/day, PO, BID.
Series [4] has as its system renal carcinomas. Conditions: from 40 ng/mL per kidney tissue density of 1.03 g/mL.

Consider `CNC(=O)c1ccccc1Sc1ccc2c(/C=C/c3ccccn3)n[nH]c2c1` [Axitinib, N-methyl-2-[[3-[(E)-2-pyridin-2-ylethenyl]-1H-indazol-6-yl]sulfanyl]benzamide, reference compound], for which the IC50 in series [1] was 36.1 µg/mL (≈ 93.4 µM). Also, the “Kidney Tissue Conc. of axitinib” value in series [2] (T = 3 h) is “T = 3 h: 301.0 ng/mL”; in series [2] (T = 6 h) it was “T = 6 h: 96.6 ng/mL”; in series [2] (T = 12 h), “T = 12 h: 16.2 ng/mL”; in series [2] (T = 24 h, 30 mg/kg), “T = 24 h: BLQ”; in series [2] (T = 24 h, listed as axitinib, 30 mg/kg) it was “BLQ”. The “tumor growth inhibition (TGI)” value in series [3] is on record as 89.7%. Besides, in series [4], the “axitinib kidney concentration predictive of effective inhibition of renal cancers” value is on record as “about 39 ng/g”.

One may read the IC50 as the concentration that inhibits the measured activity by half.
